In paper PMC12207318:
Results are given in words; binding and its absence hold for the method and conditions named. Binding seen in cells or lysates may run through a third protein. A yes stands for co-enrichment or nearness to the bait. Other partners may have been found.

Molecular target: Telomerase Associated Protein 1 (human (endogenous in patient-derived GSCs)) (UniProt Q99973)
Experiment: affinity purification with mass spectrometry; co-immunoprecipitation with TEP1 followed by mass spectrometry of TEP1-bound proteins (Figure 4g)

Kelch Like ECH Associated Protein 1 (from UniProt Q14145 1-624)
binding: binds
